PubChem BioAssay AID504784 | Drosophila RNAi Screening Center – 2011

Assay: 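Search for regulators of lipid droplet storage in oleate-fed fly cells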 (primary screen)
Cell system: Drosophila Kc167 embryonic cells
Reagents: long dsRNA against Drosophila genes, about 250 ng dsRNA per well
Duration: 4 days
Conditions: cells fed 400 µM oleic acid bound to BSA
Read-out: 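Microscope images give a droplet-to-nucleus area ratio, taken as log and converted to a screen-wide B-score; higher values mean greater lipid storage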
Direction: droplet/nuclear area B-score: higher = more stored lipid (overstorage)
The deposit covers about 17,000 reagents; shown is an unselected part of those that have a named target and a result. 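Each column is one replicate's B-score; the combined score over replicates was not deposited, so single values may mislead.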 The numbers tell different reagents against one gene apart.

| gene | dsRNA no. | droplet/nuclear area B-score, replicate 1 | droplet/nuclear area B-score, replicate 2 | droplet/nuclear area B-score, replicate 3 |
| --- | --- | --- | --- | --- |
| CG6733 | 1 | -0.234 | 0.45 | – |
| Spt20 | 1 | -6.2 | -3.16 | – |
| Spt20 | 2 | -0.035 | -1.11 | – |
| Fa2h (Fatty acid 2-hydroxylase) | 1 | 1.8 | -0.775 | – |
| Fa2h (Fatty acid 2-hydroxylase) | 2 | -0.821 | 0.562 | – |
| sced (scrambled) | 1 | -0.77 | -0.381 | – |
| prt (portabella) | 1 | -2.4 | -1.57 | – |
| CG17027 | 1 | -1.15 | 0.416 | 0.15 |
| Prp16 (pre-mRNA processing factor 16) | 1 | -0.254 | -1.69 | -1.52 |
| Prp16 (pre-mRNA processing factor 16) | 2 | 0.697 | 1.77 | – |
| Acn (Acinus) | 1 | -2.88 | -2.76 | – |
| TbCMF46 | 1 | -0.381 | 0.29 | – |
| CG7600 | 1 | -1.03 | 1.82 | – |
| CG11695 | 1 | -1.31 | 0.347 | -1.78 |
| CG14459 | 1 | -1.5 | -3.95 | – |
| CG14459 | 2 | -0.779 | 1.05 | – |
| Unc-76 (Uncoordinated 76) | 1 | 1.32 | 0.575 | – |
| Unc-76 (Uncoordinated 76) | 2 | -0.388 | 0.692 | – |

4 entries already listed, sorted by “droplet/nuclear area B-score, replicate 2”, highest first:
| gene | dsRNA no. | droplet/nuclear area B-score, replicate 1 | droplet/nuclear area B-score, replicate 2 | droplet/nuclear area B-score, replicate 3 |
| --- | --- | --- | --- | --- |
| CG14459 | 2 | -0.779 | 1.05 | – |
| Unc-76 (Uncoordinated 76) | 1 | 1.32 | 0.575 | – |
| CG11695 | 1 | -1.31 | 0.347 | -1.78 |
| CG14459 | 1 | -1.5 | -3.95 | – |

Additional results follow.
| gene | dsRNA no. | droplet/nuclear area B-score, replicate 1 | droplet/nuclear area B-score, replicate 2 | droplet/nuclear area B-score, replicate 3 |
| --- | --- | --- | --- | --- |
| Acox3 (Acyl-CoA oxidase 3) | 1 | 0.346 | -0.256 | – |
| Sara (Smad anchor for receptor activation) | 1 | 0.166 | -0.966 | – |
| meep | 1 | -0.917 | -0.146 | – |
| robl37BC | 1 | 0.696 | 0.86 | – |
| CG10336 | 1 | -0.2 | -0.669 | – |
| CG14304 | 1 | 2.85 | 2.73 | – |
| CG15027 | 1 | -0.607 | 0.182 | – |
| CG16863 | 1 | 0.19 | -0.936 | – |
| Asx (Additional sex combs) | 1 | 1.22 | 0.492 | – |
| CG5973 | 1 | -1.43 | 0.0851 | – |
| CG32450 | 1 | -1.73 | 1.9 | – |
| CG41520 | 1 | -0.0387 | -0.399 | – |
| CG14607 | 1 | 1.35 | 1.4 | – |
| Rpi (Ribose-5-phosphate isomerase) | 1 | -0.821 | -1.01 | – |
| CG9010 | 1 | 0.0247 | -5.47 | – |
| CG3847 | 1 | -0.0802 | -0.0894 | – |
| CG3847 | 2 | 1.64 | 0.907 | 1.1 |
